# In all, about 330,000 compounds went through this assay and about 7,700 (2.3%) were called active. Inconclusive means that the source gave no clear call. Such entries were picked first, then a sample of the others. Calls follow the shape of the dose curve; as a rule, active = well fitted inhibition curve with a large enough effect; inconclusive = small, poorly fitted or top-dose-only effect, or effect the other way; inactive = flat fitted curve, though single readings scatter. Potencies beside an inconclusive call are fits to weak or partial responses and may not hold up.
# Experiment: qHTS screen for small molecules that inhibit ELG1-dependent DNA repair in human embryonic kidney (HEK293T) cells expressing luciferase-tagged ELG1; also: nearly all actives have a fitted effect of over 55% in size
# Conditions: HEK293T ELG1-luciferase reporter, luminescence, 16 h, DNA damage induced by 5-fluorouridine; activity change, negative = inhibition: at 46.1 µM (top of the series)
# Procedure, shortened: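 Cells (2,000 per well) received 5-fluorouridine plus test compound or DMSO and were incubated 16 hr at 37 °C, 5% CO2. Luciferase activity was read by luminescence 30 min after ONE-Glo addition; signal suppression marked inhibition of damage-induced ELG1 function.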
# % is scaled to controls: 0 for no effect and ±100 for the full control effect; potency is read from the fitted curve at half-maximal effect.
SMILES,Potency,"activity change, negative = inhibition"
O=C(N(c1ccccc1)c1ccccc1)N(c1ccccc1)c1ccccc1,"inconclusive: 14.6 µM [inhibitor, single point]",–
CCCOc1ccc(C(=O)NNC(=S)NC(=O)c2cc(-c3ccc(Cl)cc3)nc3ccccc23)cc1,–,inactive: 9.83%
O=C1C(=O)N(CCN2CCOCC2)C(c2cccnc2)/C1=C(/O)c1ccccc1 (stereo not drawn),–,inactive: 13.6%
O=C(N/N=C/c1cn(-c2ccccc2)nc1-c1cc2ccccc2o1)c1cccnc1,"inconclusive: 1.64 µM [activator, partial curve]",–
COc1cccc(NC(=O)c2ccc3c(c2)OCO3)c1,"inconclusive: 3.55 µM [activator, single point]",–
C/C(=N\NC(=O)c1cc(C)[nH]n1)C(C)(C)C,"inconclusive: 25.9 µM [activator, partial curve, poor fit]",–
CC(=O)c1c(C)[nH]c(C(=O)Nc2cccc(S(=O)(=O)N3CCCCC3)c2)c1C,"inconclusive: 7.3 µM [activator, partial curve, poor fit]",–
O=C(CCCn1c(=O)[nH]c2ccsc2c1=O)N1CCN(Cc2ccc3c(c2)OCO3)CC1,"inconclusive: 13 µM [inhibitor, partial curve, poor fit]",–
Cc1noc(C(=O)Nc2ccc3c(c2)OCO3)c1Cl,"inconclusive: 14.6 µM [activator, partial curve]",–
CCOC(=O)CN(C(=O)Cn1nnc(-c2ccc(C)cc2)n1)C(CC)C(=O)NC1CCCC1 (stereo not drawn),"inconclusive: 25.9 µM [inhibitor, partial curve, poor fit]",–
CCOc1ccc(CCNC(=O)c2ccc(S(=O)(=O)N3CCCC3)cc2)cc1OCC,"inconclusive: 4.61 µM [inhibitor, single point]",–
Cc1ccc(NS(=O)(=O)c2cc(-c3cc(C)no3)ccc2C(C)C)nc1,–,inactive: -1.33%
Cc1ccc(C)n1-c1ccsc1C(=O)CC#N,–,inactive: 0.0756%
Cc1cc(C(=O)N/N=C/c2ccc([N+](=O)[O-])cc2)c2ccccc2n1,"inconclusive: 4.61 µM [inhibitor, full curve, poor fit]",–
CCCn1c(N)c(C(=O)CSc2nc3ccccc3c(=O)n2Cc2ccccc2)c(=O)[nH]c1=O,–,inactive: 2.35%
CC(C)(C)c1ccc(Oc2ccc(NC(=O)c3ccccc3C(=O)O)cn2)cc1,–,inactive: 1.03%
COc1ccc(CCn2nc(C)c([N+](=O)[O-])c2C)cc1,"inconclusive: 20.6 µM [activator, partial curve]",–
CCOc1ccccc1NC(=O)CN1CCC(NC(=O)c2ccccc2C)CC1,"inconclusive: 23.1 µM [inhibitor, partial curve, poor fit]",–
Cc1c(C(=O)Nn2cnnc2)oc2ccccc12,–,inactive: -7.05%
COc1ccc(S(=O)(=O)N2CCN(c3ccccc3OC)CC2)cc1C(=O)N1CCCCC1,–,inactive: -9.29%
O=C(CCN1C(=O)c2ccccc2S1(=O)=O)Nc1nc2c(s1)CCCC2,"inconclusive: 10.3 µM [activator, partial curve]",–
CCOC(=O)c1cn2nc(Oc3ccccc3)ccc2n1,"inconclusive: 16.4 µM [activator, partial curve]",–

# One compound at a time, as listed above:
# `CC(C)(C)c1ccc(Oc2ccc(NC(=O)c3ccccc3C(=O)O)cn2)cc1` is listed as activity change, negative = inhibition: inactive: 1.03%
# `O=C(N(c1ccccc1)c1ccccc1)N(c1ccccc1)c1ccccc1` is listed as Potency: inconclusive: 14.6 µM [inhibitor, single point]

# The listing continues.

SMILES,Potency,"activity change, negative = inhibition"
S=C(NCc1ccco1)N1CCN(Cc2ccc(Cl)cc2Cl)CC1,–,inactive: -1.22%
CCCN(CC(=O)Nc1cccc(Br)c1)CC(=O)Nc1ccc(F)c(F)c1F,–,inactive: -21.1%
O=C(NNC(=O)c1cnccn1)c1ccc(Cl)c(Cl)c1,"inconclusive: 2.59 µM [inhibitor, single point]",–
CCOc1ccc(NC(=O)c2cc3cc4ccc(OC)cc4nc3o2)cc1,"inconclusive: 1.3 µM [inhibitor, partial curve, poor fit]",–
S=c1[nH]ncn1/N=C/c1ccc(Br)cc1,"inconclusive: 16.4 µM [activator, single point]",–
CCOC(=O)c1ccc(-c2ccc(C=O)o2)cc1,"inconclusive: 2.31 µM [activator, full curve]",–
CCN(CC)S(=O)(=O)c1cccc(NC(=O)c2ccccc2Br)c1,"inconclusive: 29.1 µM [inhibitor, single point]",–
CCOC(=O)c1ccc(NC(=O)COc2ccc(CNCCO)cc2OCC)cc1,–,inactive: -2.51%
COc1ccc(OC)c(-c2nnc3n2N=C(c2ccc(OC)c(OC4CCOC4)c2)CS3)c1 (stereo not drawn),"inconclusive: 29.1 µM [inhibitor, single point]",–
COC(=O)c1cc(-c2cc(OC)ccc2OC)nc2c1c(=O)n(C)c(=O)n2Cc1ccccc1,active: 9.2 µM,–
CCOC(=O)c1c(C2CCN(C(=O)OCC)CC2)nc2ccccn12,"inconclusive: 25.9 µM [inhibitor, single point]",–
COc1ccc(-c2cccc(C(=O)N3CCOCC3)c2)cc1,"inconclusive: 25.9 µM [activator, single point]",–
O=C(N/N=C/c1ccc([N+](=O)[O-])cc1)c1cc2ccccc2o1,"inconclusive: 18.3 µM [activator, partial curve]",–
Cc1ccc(-c2cc(C(=O)NCC3CCCO3)c3ccccc3n2)cc1C (stereo not drawn),"inconclusive: 29.1 µM [inhibitor, single point]",–
Cc1ccc(NC(=O)COC(=O)c2nn(-c3ccc(Cl)cc3)cc2O)cc1,"inconclusive: 18.3 µM [activator, single point]",–
CS(=O)(=O)N1CCN(c2ccccc2NC(=O)C(c2ccccc2)c2ccccc2)CC1,"inconclusive: 11.6 µM [inhibitor, partial curve, poor fit]",–
O=C(Nc1ccccc1C(F)(F)F)NC1CCCCCCC1,"inconclusive: 18.4 µM [activator, single point]",–
Brc1ccc(-c2nc(-c3ccccn3)no2)o1,"inconclusive: 0.731 µM [activator, full curve]",–
CC(C)CN1C2CCCC1CC(NC(=S)NCc1ccco1)C2 (stereo not drawn),–,inactive: -9.93%
COC(=O)c1ccc2c(C)c(C(C)(C)O)[nH]c2c1,"inconclusive: 10.3 µM [activator, single point]",–
Cc1ccc(S(=O)(=O)NCCC(=O)NCC(c2cccs2)N2CCOCC2)cc1 (stereo not drawn),"inconclusive: 0.291 µM [inhibitor, partial curve, poor fit]",–
